PubChem BioAssay AID720505, Drosophila RNAi Screening Center, 2013

Test: 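Fly regulators or components of the CRAC channel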 (primary screen)
Cell system: Drosophila S2R+ cells
Reagents: long dsRNA against Drosophila genes
Treatment: thapsigargin (2 µM) in calcium-free buffer to empty internal stores, then 2 mM calcium added back
Detection: 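Fluo-4 signal in 384-well plates read on a FLIPR after thapsigargin (2 µM, calcium-free) store depletion and 2 mM calcium add-back; unnormalised mean endpoint per well; screen run twice, selected wells retested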
Reading the numbers: calcium signal and retest calcium signal: higher = more calcium entry after store depletion
Rule for the call: 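About 1500 genes called as lowering calcium entry, by varying amounts, judged against per-plate control wells with STIM1 as positive and Rho1 as negative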
Meaning of the calls: active = called as lowering calcium entry; inactive = not called
In all, the deposit lists about 20,000 reagents; this is a random part of those with a known target gene and a result. Over the whole deposit, about 2,100 (10%) were called active. 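Raw plate signals without normalisation; calls rest on control-based scores that were not deposited; replicate 2 separates called from uncalled poorly.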 The numbers tell different reagents against one gene apart. A plus sign joins genes that one reagent is predicted to hit. No sequences are given here. Not given: the amount of reagent, the time to read-out.

{"predicted target": "fz", "reagent": 1, "calcium signal, replicate 1": 81.2, "calcium signal, replicate 2": 196, "Outcome": "inactive"}
{"predicted target": "CG3397", "reagent": 1, "calcium signal, replicate 1": 143, "calcium signal, replicate 2": 136, "Outcome": "inactive"}
{"predicted target": "Pde9", "reagent": 1, "calcium signal, replicate 1": 127, "calcium signal, replicate 2": 108, "Outcome": "inactive"}
{"predicted target": "Pde9", "reagent": 2, "calcium signal, replicate 1": 164, "calcium signal, replicate 2": 117, "Outcome": "inactive"}
{"predicted target": "Pde9", "reagent": 3, "calcium signal, replicate 1": 170, "calcium signal, replicate 2": 98.5, "Outcome": "inactive"}
{"predicted target": "Pde9", "reagent": 4, "calcium signal, replicate 1": 102, "calcium signal, replicate 2": 110, "Outcome": "inactive"}
{"predicted target": "NO66", "reagent": 1, "calcium signal, replicate 1": 103, "calcium signal, replicate 2": 114, "Outcome": "inactive"}
{"predicted target": "mld", "reagent": 1, "calcium signal, replicate 1": 253, "calcium signal, replicate 2": 175, "Outcome": "inactive"}
{"predicted target": "prel", "reagent": 1, "calcium signal, replicate 1": 158, "calcium signal, replicate 2": 161, "Outcome": "inactive"}
{"predicted target": "CG13501", "reagent": 1, "calcium signal, replicate 1": 152, "calcium signal, replicate 2": 76.9, "Outcome": "inactive"}
{"predicted target": "Cyp4g1", "reagent": 1, "calcium signal, replicate 1": 122, "calcium signal, replicate 2": 162, "Outcome": "inactive"}
{"predicted target": "Gr33a", "reagent": 1, "calcium signal, replicate 1": 74.2, "calcium signal, replicate 2": 96.3, "Outcome": "inactive"}
{"predicted target": "Prat", "reagent": 1, "calcium signal, replicate 1": 78.9, "calcium signal, replicate 2": 124, "Outcome": "active"}
{"predicted target": "Fcp3C", "reagent": 1, "calcium signal, replicate 1": 110, "calcium signal, replicate 2": 154, "Outcome": "inactive"}
{"predicted target": "CG42245 + MEP-1", "reagent": 1, "calcium signal, replicate 1": 46.9, "calcium signal, replicate 2": 115, "Outcome": "active"}
{"predicted target": "CG42245 + MEP-1", "reagent": 2, "calcium signal, replicate 1": 131, "calcium signal, replicate 2": 87.2, "Outcome": "inactive"}
{"predicted target": "CG6933", "reagent": 1, "calcium signal, replicate 1": 111, "calcium signal, replicate 2": 69.2, "Outcome": "inactive"}
{"predicted target": "CG6508", "reagent": 1, "calcium signal, replicate 1": 108, "calcium signal, replicate 2": 116, "Outcome": "inactive"}
{"predicted target": "CG42834", "reagent": 1, "Outcome": "active"}
{"predicted target": "CG42813", "reagent": 1, "calcium signal, replicate 1": 105, "calcium signal, replicate 2": 142, "Outcome": "inactive"}
{"predicted target": "CG8155", "reagent": 1, "calcium signal, replicate 1": 110, "calcium signal, replicate 2": 122, "Outcome": "inactive"}
{"predicted target": "CG8155", "reagent": 2, "calcium signal, replicate 1": 210, "calcium signal, replicate 2": 106, "Outcome": "inactive"}
{"predicted target": "daed", "reagent": 1, "calcium signal, replicate 1": 83.7, "calcium signal, replicate 2": 148, "Outcome": "inactive"}
{"predicted target": "CG12290", "reagent": 1, "calcium signal, replicate 1": 77.4, "calcium signal, replicate 2": 97.9, "Outcome": "inactive"}
{"predicted target": "CG18368", "reagent": 1, "calcium signal, replicate 1": 111, "calcium signal, replicate 2": 199, "Outcome": "inactive"}
{"predicted target": "MESR6", "reagent": 1, "calcium signal, replicate 1": 134, "calcium signal, replicate 2": 89.6, "Outcome": "inactive"}
{"predicted target": "Elo68alpha", "reagent": 1, "calcium signal, replicate 1": 124, "calcium signal, replicate 2": 169, "Outcome": "inactive"}
{"predicted target": "Art9", "reagent": 1, "calcium signal, replicate 1": 114, "calcium signal, replicate 2": 162, "Outcome": "inactive"}
{"predicted target": "CG13001", "reagent": 1, "calcium signal, replicate 1": 109, "calcium signal, replicate 2": 147, "retest calcium signal, replicate 1": 7515, "retest calcium signal, replicate 2": 170, "Outcome": "inactive"}
{"predicted target": "CG13001", "reagent": 2, "calcium signal, replicate 1": 147, "calcium signal, replicate 2": 186, "Outcome": "inactive"}
{"predicted target": "CG31821", "reagent": 1, "calcium signal, replicate 1": 81.3, "calcium signal, replicate 2": 174, "Outcome": "inactive"}
{"predicted target": "CG9503", "reagent": 1, "calcium signal, replicate 1": 75.9, "calcium signal, replicate 2": 154, "Outcome": "inactive"}
{"predicted target": "CG9503", "reagent": 2, "calcium signal, replicate 1": 158, "calcium signal, replicate 2": 119, "Outcome": "inactive"}
{"predicted target": "zye", "reagent": 1, "calcium signal, replicate 1": 79, "calcium signal, replicate 2": 133, "Outcome": "inactive"}
{"predicted target": "Ucp4A", "reagent": 1, "calcium signal, replicate 1": 130, "calcium signal, replicate 2": 134, "retest calcium signal, replicate 1": 111, "retest calcium signal, replicate 2": 71, "Outcome": "inactive"}

Hits, among the entries above:
{"predicted target": "Prat", "reagent": 1, "calcium signal, replicate 1": 78.9, "calcium signal, replicate 2": 124, "Outcome": "active"}
{"predicted target": "CG42245 + MEP-1", "reagent": 1, "calcium signal, replicate 1": 46.9, "calcium signal, replicate 2": 115, "Outcome": "active"}
{"predicted target": "CG42834", "reagent": 1, "Outcome": "active"}
